PubChem BioAssay AID652272, Drosophila RNAi Screening Center – 2013

- Purpose: 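Finding fly genes that regulate Hedgehog signal transduction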 (primary screen)
- System: Drosophila clone 8 (Cl8) cells
- Reagent: long dsRNA against Drosophila genes
- Measured: 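Firefly light from a Hedgehog-responsive ptc promoter reporter and Renilla reference light, both read on a plate reader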
- Direction: firefly Hh reporter signal: higher = more ptc reporter light; Renilla reference signal: higher = more Renilla control light
- Hit rule: 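Hit when the z-score averaged over two replicates is under -2 or over +3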
- Meaning of the calls: active = hit: reporter lowered or raised; inactive = not a hit
In all, the deposit lists about 21,000 reagents; below is a random part of those that have a named target and a result. Of all reagents, 503 (2.4%) got an active call. 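Raw plate light values, not normalised; calls rest on replicate z-scores that were not deposited; hits include reporter decreases as well as increases.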 A number with no mark means an inactive call. Not stated in the record: the amount of reagent, the time to read-out.

gene knocked down | dsRNA | firefly Hh reporter signal, replicate 1 | firefly Hh reporter signal, replicate 2 | firefly Hh reporter signal, replicate 3 | Renilla reference signal, replicate 1 | Renilla reference signal, replicate 2
Mrtf (Myocardin-related transcription factor) | DRSC08263 | 28955 (active) | 9147 | – | 1328 | 1088
Mrtf (Myocardin-related transcription factor) | DRSC08410 | 53308 | 21329 | – | 2301 | 2224
Mrtf (Myocardin-related transcription factor) | DRSC08411 | 75258 | 31330 | – | 2532 | 2888
CG8405 | DRSC05599 | 1.10e5 | 1.78e5 | – | 3427 | 8875
CG8405 | DRSC07166 | 82038 | 71330 | – | 1371 | 4779
CG14891 | DRSC15013 | 1.33e5 | 65184 | – | 5128 | 2784
mav (maverick) | DRSC17149 | 90572 | 2.69e5 | – | 2748 | 9293
Urod (Uroporphyrinogen decarboxylase) | DRSC07569 | 94333 | 59195 | – | 2787 | 5389
Alg13 (Alg13 UDP-N-acetylglucosaminyltransferase subunit) | DRSC14864 | 2.32e5 | 1.84e5 | – | 7540 | 3930
Mur18B (Mucin related 18B) | DRSC20063 | 1.33e5 | 71860 | – | 3115 | 1564
CG5790 | DRSC02896 | 71798 | 96131 | – | 2821 | 3703
pbl (pebble) | DRSC11381 | 76822 | 37595 | – | 3136 | 1977
viaf (viral IAP-associated factor) | DRSC10326 | 1.22e5 | 55941 | – | 4714 | 2380
CG1909 | DRSC17150 | 1.26e5 | 62512 | – | 2731 | 3041
OstDelta (Oligosaccharide transferase Delta subunit) | DRSC06980 | 1.35e5 | 91213 | – | 5437 | 4304
CG1316 | DRSC08304 | 90598 | 43189 | – | 2384 | 747
Jon65Aiv (Jonah 65Aiv) | DRSC10644 | 75714 | 85878 | – | 8264 | 6513
CG13359 | DRSC18539 | 94199 | 2.34e5 | – | 3634 | 10077
CG18171 | DRSC08524 | 68169 | 43060 | – | 1780 | 2996
soti (scotti) | DRSC16432 | 1.49e5 | 1.00e5 | – | 5898 | 4130
Ir7c (Ionotropic receptor 7c) | DRSC18007 | 66025 | 1.80e5 | – | 1248 | 8119
Or82a (Odorant receptor 82a) | DRSC11996 | 2.27e5 | – | – | 5261 | –
sr (stripe) | DRSC13284 | 57060 | 1.70e5 | – | 12347 | 4518
sr (stripe) | DRSC17067 | 3.82e5 | 30266 | – | 21748 | 982
rush (rush hour) | DRSC18568 | 1.35e5 | 1.12e5 | – | 2365 | 3520
CG4306 | DRSC10409 | 87048 | – | – | 5736 | 2544
Marcal1 | DRSC02718 | 1.15e5 | 37045 | – | 3040 | 3921
CG5172 | DRSC19936 | 1.15e5 | 2.83e5 | – | 2566 | 12119
CG32023 | DRSC08946 | 1.27e5 | 2.53e5 | – | 4376 | 12000
Polr1C (RNA polymerase I and III subunit C) | DRSC02719 | 88872 | 38987 | – | 4695 | 2368
Hacd1 (3-hydroxyacyl-CoA dehydratase 1) | DRSC02988 | 59587 | 33396 | – | 2992 | 2000
Cyp9f3 (Cytochrome P450 9f3) | DRSC16636 | 87883 | 1.83e5 | – | 3464 | 4268
Try29F (Trypsin 29F) | DRSC03466 | 96979 | 53189 | – | 2838 | 5328
CG7551 | DRSC10876 | 62944 | 44960 | 52848 | 3979 | 3114
Eps-15 (Epidermal growth factor receptor pathway substrate clone 15) | DRSC04288 | 1.16e5 | 71457 | – | 4676 | 1984
CG31523 | DRSC12009 | 2.81e5 | – | – | 6533 | –
CG31523 | DRSC12337 | 1.59e5 | 1.46e5 | – | 6995 | 5725
Nt5a (5' nucleotidase A) | DRSC08561 | 1.04e5 | 93712 | – | 5120 | 4427
Npc2e (Niemann-Pick type C-2e) | DRSC15522 | 1.29e5 | 1.99e5 | – | 3894 | 5833
CG42812 | DRSC15368 | 4.80e5 | 83196 | – | 22842 | 2853
Reg-5 (Rhythmically expressed gene 5) | DRSC04647 | 91901 | 53091 | – | 3672 | 1495
Prip | DRSC07044 | 1.15e5 | 54888 | – | 4704 | 2267
Sur-8 | DRSC15794 | 52608 | 77217 | – | 1024 | 2189
zf30C (zinc finger protein 30C) | DRSC03641 | 48083 | 67421 | – | 2756 | 3272
CG6244 | DRSC10609 | 1.50e5 | – | – | 5127 | 4424
t-Grip91 (testis-specific gamma-tubulin ring protein 91) | DRSC01506 | 1.08e5 | 2.13e5 | – | 3013 | 10410
CSN1a (COP9 signalosome subunit 1a) | DRSC01951 | 73329 | 62854 | – | 2067 | 6555
CG15414 | DRSC00429 | 1.69e5 | 91446 | – | 4484 | 7501
CG32795 | DRSC18609 | 97179 | 2.82e5 | – | 2901 | 10697
CG32795 | DRSC18610 | 1.04e5 | 2.71e5 | – | 3254 | 11003
Naa20A (N(alpha)-acetyltransferase 20 A) | DRSC19579 | 1.05e5 | 1.21e5 | – | 2267 | 2472
Golgin97 (Golgin 97) | DRSC06895 | 1.06e5 | 79789 | – | 3770 | 3098
CG3760 | DRSC04415 | 6.26e5 | 1.07e5 | – | 4954 | 4954
Rm62 | DRSC12365 | 1.25e5 (active) | 90533 | – | 2881 | 1861
CG15370 | DRSC18042 | 87706 | 50578 | – | 5104 | 1660
CG17786 | DRSC15270 | 5.25e5 | 77484 | – | 27373 | 2512
tou (toutatis) | DRSC06006 | 1.56e5 | 1.16e5 | – | 6073 | 4616
CG34429 | DRSC10120 | 41101 | 47204 | 42803 | 4843 | 2940
Gr89a (Gustatory receptor 89a) | DRSC15023 | 81497 | 71125 | – | 2016 | 423
CCDC53 (Coiled-coil domain containing 53) | DRSC03056 | 74045 | 34368 | – | 2346 | 3852
RpL15 (Ribosomal protein L15) | DRSC20963 | 33030 (active) | 51977 | – | 2768 | 6021
kin17 | DRSC11890 | 65408 | 99345 | – | 2385 | 3475
Ggamma1 (G protein gamma subunit 1) | DRSC07435 | 1.06e5 | 70044 | – | 3645 | 2592
CG9997 | DRSC16591 | 72953 | 91216 | – | 2192 | 2764
vrs (versager) | DRSC15832 | 76332 | 1.22e5 | – | 1664 | 6264
TwdlZ (TweedleZ) | DRSC19154 | 6.39e5 | 2.23e5 | – | 38819 | 5367
Mpcp2 | DRSC11226 | 80748 | – | – | 4588 | 2192
Syx7 (Syntaxin 7) | DRSC11763 | 1.18e5 | 1.57e5 | – | 4579 | 5360
asRNA:CR33945 (antisense RNA:CR33945) | DRSC14080 | 4.58e5 | 2.17e5 | – | 22284 | 4358
CG4988 | DRSC02800 | 1.18e5 | 60304 | – | 2960 | 3586
CG18540 | DRSC06767 | 97906 | 50658 | – | 2042 | 3178
ru (roughoid) | DRSC08258 | 64504 | 37748 | – | 2610 | 3098
CG2218 | DRSC15428 | 1.11e5 | 1.09e5 | – | 2630 | 3429

6 entries already listed, sorted by “firefly Hh reporter signal, replicate 1”, high to low.
gene knocked down | dsRNA | firefly Hh reporter signal, replicate 1 | firefly Hh reporter signal, replicate 2 | firefly Hh reporter signal, replicate 3 | Renilla reference signal, replicate 1 | Renilla reference signal, replicate 2
CG32023 | DRSC08946 | 1.27e5 | 2.53e5 | – | 4376 | 12000
Marcal1 | DRSC02718 | 1.15e5 | 37045 | – | 3040 | 3921
CG5172 | DRSC19936 | 1.15e5 | 2.83e5 | – | 2566 | 12119
Polr1C (RNA polymerase I and III subunit C) | DRSC02719 | 88872 | 38987 | – | 4695 | 2368
CG4306 | DRSC10409 | 87048 | – | – | 5736 | 2544
Hacd1 (3-hydroxyacyl-CoA dehydratase 1) | DRSC02988 | 59587 | 33396 | – | 2992 | 2000
